In patent publication US20040053278A1:

Tests used:
[1] = target: BMP type IB receptor (BMPR-IB), kinase-defective; test: affinity cross-linking with 125I-OP-1/BMP-7, immunoprecipitation, autoradiography
[2] = target: BMP type IB receptor (BMPR-IB), wild type; test: as above
[3] = target: BMP type IB receptor (BMPR-IB), wild type; test: affinity cross-linking and immunoprecipitation

binding [1]: binds
binding [2]: binds
binding [3]: binds
B1: FLAG-tagged Smad6 (protein, not shown: small tags and cut ends)
chain: MFRSKRSGLVRRLWRSRVVPDREEGSGGGGGVDEDGSLGSRAEPAPRAREGGGCSRSEVRSVAPRRPRDAVGPRGAAIAGRRRRTGGLPRPVSESGAGAGGSPLDVAEPGGPGWLPESDCETVTCCLFSERDAAGAPRDSGDPQARQSPEPEEGGGPRSREARSRLLLLEQELKTVTYSLLKRLKERSLDTLLEAVESRGGVPGGCVLVPRADLRLGGQPAPPQLLLGRLFRWPDLQHAVELKPLCGCHSFTAAADGPTVCCNPYHFSRLCGPESPPPPYSRLSPPDQYKPLDLSDSTLSYTETEATNSLITAPGEFSDASMSPDATKPSHWCSVAYWEHRTRVGRLYAVYDQAVSIFYDLPQGSGFCLGQLNLEQRSESVRRTRSKIGFGILLSKEPDGVWAYNRGEHPIFVNSPTLDAPGGRALVVRKVPPGYSIKVFDFERSGLLQHADAAHGPYDPHSVRISFAKGWGPCYSRQFITSCPCWLEILLNNHR

Results are given in words; binding and its absence hold for the method and conditions named. Binding calls can cover weak binding; strength is not graded here. Sequences can lack the tags named with a protein.
